The target in the data set is PKR dsRBD (P20) (UniProt P19525). The data set is described as follows: EMSA. Particulars: 0.1 mg/mL native yeast tRNAPhe competitor, Hill undetermined; none (unmodified transcript); 25 mM Hepes-KOH pH 7.5, 10 mM NaCl, 5% glycerol, 5 mM DTT, 0.1 mM EDTA, 0.1 mg/mL tRNAPhe or herring sperm DNA; room temperature 10 min; 10% native gel, 0.5x TB, 16 C; recombinant protein; label: 5'-32P.

The chains behind the UniProt entries cited, without tags or fusion partners. Residues count along the entry.
UniProt P19525, 1-184: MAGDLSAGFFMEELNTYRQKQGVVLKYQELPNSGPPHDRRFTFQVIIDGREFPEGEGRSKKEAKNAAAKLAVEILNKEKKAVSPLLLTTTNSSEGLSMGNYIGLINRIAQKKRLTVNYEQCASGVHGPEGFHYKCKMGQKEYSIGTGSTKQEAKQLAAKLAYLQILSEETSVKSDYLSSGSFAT

pKd: −log10 of the molar value. For at least one entry, the source does not settle the construct or the ends of the probe. Bounds are passed on as bounds.

As to “UUAAGAUGGCAGAGCCCGGUAAUCGCAUAAAACUUAAAACUUUACAGUCAGAGGUUCAAUUCCUCUUCUUAACACCA [T7 mt-tRNALeu WT (monomer)]”, the pKd was less than 4.70.

The values are drawn from PMC3587421, “Native Tertiary Structure and Nucleoside Modifications Suppress tRNA’s Intrinsic Ability to Activate the Innate Immune Sensor PKR”.
